## Results of single-concentration screens

By UniProt entry, the sequences of proteins in these tests, tags left out. Residues count along the entry.
UniProt I6X8D2, whole entry: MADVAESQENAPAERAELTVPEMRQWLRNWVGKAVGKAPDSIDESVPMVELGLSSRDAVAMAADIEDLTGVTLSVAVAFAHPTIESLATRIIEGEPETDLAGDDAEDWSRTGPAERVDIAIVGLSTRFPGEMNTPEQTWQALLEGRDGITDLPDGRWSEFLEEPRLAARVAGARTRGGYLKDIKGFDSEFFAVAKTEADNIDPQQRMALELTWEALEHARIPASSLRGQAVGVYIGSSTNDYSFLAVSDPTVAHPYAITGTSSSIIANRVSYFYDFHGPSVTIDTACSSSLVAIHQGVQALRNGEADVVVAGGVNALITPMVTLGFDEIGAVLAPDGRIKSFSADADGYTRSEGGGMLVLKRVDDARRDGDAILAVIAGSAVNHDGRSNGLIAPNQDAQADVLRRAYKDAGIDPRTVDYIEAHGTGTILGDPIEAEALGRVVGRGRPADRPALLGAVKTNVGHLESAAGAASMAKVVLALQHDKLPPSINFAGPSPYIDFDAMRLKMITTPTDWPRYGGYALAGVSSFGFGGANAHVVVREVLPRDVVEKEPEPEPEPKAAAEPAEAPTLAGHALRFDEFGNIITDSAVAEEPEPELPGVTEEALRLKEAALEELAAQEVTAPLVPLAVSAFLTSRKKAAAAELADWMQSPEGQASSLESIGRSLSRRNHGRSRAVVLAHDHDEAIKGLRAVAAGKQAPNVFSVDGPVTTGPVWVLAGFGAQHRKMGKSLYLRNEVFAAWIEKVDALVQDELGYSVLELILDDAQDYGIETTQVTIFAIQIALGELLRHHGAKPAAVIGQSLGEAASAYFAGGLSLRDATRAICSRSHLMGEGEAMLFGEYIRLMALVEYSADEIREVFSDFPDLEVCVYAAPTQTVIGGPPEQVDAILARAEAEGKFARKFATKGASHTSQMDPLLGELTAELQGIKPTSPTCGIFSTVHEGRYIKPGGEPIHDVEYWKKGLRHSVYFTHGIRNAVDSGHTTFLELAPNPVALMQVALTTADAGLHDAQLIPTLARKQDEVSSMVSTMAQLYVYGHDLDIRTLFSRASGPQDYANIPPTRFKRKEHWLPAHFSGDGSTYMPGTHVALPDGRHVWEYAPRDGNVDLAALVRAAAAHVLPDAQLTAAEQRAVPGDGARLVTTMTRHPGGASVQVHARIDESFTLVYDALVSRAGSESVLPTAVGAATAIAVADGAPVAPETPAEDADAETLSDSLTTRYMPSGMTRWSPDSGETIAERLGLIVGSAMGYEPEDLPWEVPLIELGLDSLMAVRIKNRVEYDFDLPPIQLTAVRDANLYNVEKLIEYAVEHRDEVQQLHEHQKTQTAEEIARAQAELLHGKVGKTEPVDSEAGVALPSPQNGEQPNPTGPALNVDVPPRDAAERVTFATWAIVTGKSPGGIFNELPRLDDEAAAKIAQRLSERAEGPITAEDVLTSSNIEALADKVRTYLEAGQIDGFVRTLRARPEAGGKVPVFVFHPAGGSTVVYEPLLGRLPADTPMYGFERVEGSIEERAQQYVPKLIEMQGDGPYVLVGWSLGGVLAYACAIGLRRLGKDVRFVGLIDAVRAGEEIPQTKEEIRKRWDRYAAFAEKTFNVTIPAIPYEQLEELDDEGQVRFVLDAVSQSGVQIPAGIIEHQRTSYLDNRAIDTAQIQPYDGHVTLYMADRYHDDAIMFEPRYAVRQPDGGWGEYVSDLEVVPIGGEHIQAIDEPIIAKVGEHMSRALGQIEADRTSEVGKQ
UniProt Q8IDJ8, 1-583: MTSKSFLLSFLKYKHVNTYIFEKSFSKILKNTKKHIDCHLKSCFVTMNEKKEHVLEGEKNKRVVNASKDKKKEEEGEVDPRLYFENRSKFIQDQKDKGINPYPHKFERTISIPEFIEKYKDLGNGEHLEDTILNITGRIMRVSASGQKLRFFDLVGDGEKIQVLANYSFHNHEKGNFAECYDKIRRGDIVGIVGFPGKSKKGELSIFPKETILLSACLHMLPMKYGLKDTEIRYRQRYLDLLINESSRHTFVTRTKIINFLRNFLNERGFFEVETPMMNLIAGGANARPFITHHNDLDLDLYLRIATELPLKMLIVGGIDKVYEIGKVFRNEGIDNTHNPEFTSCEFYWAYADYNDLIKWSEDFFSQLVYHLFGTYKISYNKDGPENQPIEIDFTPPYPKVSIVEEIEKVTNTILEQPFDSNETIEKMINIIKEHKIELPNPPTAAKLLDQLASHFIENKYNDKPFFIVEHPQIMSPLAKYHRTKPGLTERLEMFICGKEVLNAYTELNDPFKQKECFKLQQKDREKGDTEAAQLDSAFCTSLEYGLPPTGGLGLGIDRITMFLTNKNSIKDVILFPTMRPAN
UniProt A4I591, 1-473: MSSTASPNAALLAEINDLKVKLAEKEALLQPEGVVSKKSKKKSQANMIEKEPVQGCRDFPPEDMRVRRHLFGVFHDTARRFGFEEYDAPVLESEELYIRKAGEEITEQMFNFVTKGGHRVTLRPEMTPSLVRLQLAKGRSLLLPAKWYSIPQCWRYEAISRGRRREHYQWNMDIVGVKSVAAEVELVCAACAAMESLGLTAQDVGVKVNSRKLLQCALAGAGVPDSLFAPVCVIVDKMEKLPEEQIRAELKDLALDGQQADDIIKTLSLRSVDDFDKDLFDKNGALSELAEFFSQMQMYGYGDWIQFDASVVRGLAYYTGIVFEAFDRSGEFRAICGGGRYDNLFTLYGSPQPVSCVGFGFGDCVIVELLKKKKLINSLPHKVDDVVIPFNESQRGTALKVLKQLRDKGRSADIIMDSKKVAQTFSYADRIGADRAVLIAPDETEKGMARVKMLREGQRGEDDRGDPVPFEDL
UniProt P9WFT3, whole entry: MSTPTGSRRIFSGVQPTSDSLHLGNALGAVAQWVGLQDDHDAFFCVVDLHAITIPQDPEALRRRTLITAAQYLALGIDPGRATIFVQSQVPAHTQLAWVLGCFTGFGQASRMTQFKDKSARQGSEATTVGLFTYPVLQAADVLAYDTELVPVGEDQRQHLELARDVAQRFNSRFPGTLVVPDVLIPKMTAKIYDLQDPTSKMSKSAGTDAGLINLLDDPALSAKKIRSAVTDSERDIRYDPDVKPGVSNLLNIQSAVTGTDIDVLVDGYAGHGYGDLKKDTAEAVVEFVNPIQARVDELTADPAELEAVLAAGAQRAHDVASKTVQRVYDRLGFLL

Data taken from ChEMBL document CHEMBL3988442, “University of Dundee, Small-Polar-MMV Screening Library” (2021).

Pks13 thioesterase: 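Polyketide synthase Pks13, Mycobacterium tuberculosis (UniProt I6X8D2). Enzyme assay of the thioesterase domain of polyketide synthase 13; the read-out is not stated. Tested at 30 µM. Higher reads as stronger inhibition (inferred from which compounds were picked for retests). Of about 67,000 compounds tested this way, about 300 (0.46%) reached 50% or more in at least one test.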
PfKRS1: 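Lysine-tRNA ligase, Plasmodium falciparum 3D7 (UniProt Q8IDJ8). Enzyme assay of the cytosolic lysyl-tRNA synthetase in 384-well plates, read by luminescence. Tested at 30 µM. Direction is inferred from only a few compounds that gave an IC50; most scored high, so higher reads as stronger inhibition. Size under these conditions: about 69,000 compounds, about 49 of them at 50% or above in at least one test.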
LiHisRS: 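Enzyme assay of histidyl-tRNA synthetase; the read-out is not stated. Target: Histidine-tRNA ligase, Leishmania infantum (UniProt A4I591). Tested at 30 µM. Direction is inferred from retests: higher values go with stronger inhibition. The assay is labelled LdHisRS but filed under L. infantum. Of about 69,000 compounds tested this way, about 410 (0.6%) reached 50% or more in at least one test.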
MtTrpRS: 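Tryptophan-tRNA ligase, Mycobacterium tuberculosis (UniProt P9WFT3). Enzyme assay of tryptophanyl-tRNA synthetase; the read-out is not stated. Compounds at 10 µM. Higher most likely means stronger inhibition; the record gives no direction and few retests gave an IC50. Of about 65,000 compounds tested this way, about 64 (0.098%) reached 50% or more in at least one test.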

The filed quantity is “Percent Effect” (%).
How 0% and 100% were set is not recorded. Most values in the screen are low, and negative values occur.
The compounds are a random part of those screened.

* Cc1ccc2nccc(C(=O)N3CCOC(CCN(C)C)C3)c2c1 (stereo unspecified) | Pks13 thioesterase: 8.533%; PfKRS1: -2.642%; LiHisRS: -2.041%; MtTrpRS: -1.975%
* CCOCCNc1nc(C2CCCC2)nc2c1cnn2C | Pks13 thioesterase: -5.921%; PfKRS1: -2.84%; LiHisRS: 13.46%; MtTrpRS: 2.495%
* CN(C)C(=O)CN1CCC(c2cncc(-c3cccc(Cl)c3)n2)CC1 | Pks13 thioesterase: 3.488%; PfKRS1: 2.442%; LiHisRS: 14%
* Cc1cnn(CC2CCCCN2Cc2cc(C)on2)c1 (stereo unspecified) | Pks13 thioesterase: -6.466%; PfKRS1: 5.298%; LiHisRS: -4.255%; MtTrpRS: -0.6681%
* c1ccc(C2(CNCc3cnc(N4CCOCC4)nc3)CC2)cc1 | Pks13 thioesterase: -34.37%; PfKRS1: 2.964%; LiHisRS: 15.93%; MtTrpRS: -0.7168%
* Cc1cc(NCC(=O)NCC(F)(F)F)nc(-c2ccncc2)n1 | Pks13 thioesterase: 0.4784%; PfKRS1: 0.2401%; LiHisRS: 5%; MtTrpRS: 0.2913%
* O=C(Nc1ccccc1)N1C[C@H]2C[C@H](C(=O)N3CCOCC3)[C@@H](C1)O2 | Pks13 thioesterase: -8.41%; PfKRS1: 1.325%; LiHisRS: 5.769%
* CC(NC(=O)N(C)Cc1ccc2c(c1)OCCO2)c1nncn1C (stereo unspecified) | Pks13 thioesterase: -14.72%; PfKRS1: -2.913%; LiHisRS: 15.15%; MtTrpRS: -4.709%
* CC(NC(=O)NCCNc1ccccn1)c1cccs1 (stereo unspecified) | Pks13 thioesterase: -8.162%; PfKRS1: 0.8959%; LiHisRS: 12.17%; MtTrpRS: -1.363%
* O=C(Cc1ccco1)N1C[C@H]2CCC[C@@]2(COCC2CC2)C1 | Pks13 thioesterase: -4.448%; PfKRS1: 8.809%; LiHisRS: 20%; MtTrpRS: -6.296%
* Cc1cc(-c2c(C)c(-c3cnn(C)c3)nc(N)c2C#N)oc1C | Pks13 thioesterase: -56.53%; PfKRS1: 9.74%; LiHisRS: 22.37%; MtTrpRS: -7.222%
* COc1ccc(CNC(=O)c2ccoc2CN2CCNC(=O)C2)cc1 | Pks13 thioesterase: -6.322%; PfKRS1: 2.032%; LiHisRS: 12.36%; MtTrpRS: -2.346%
* CCCc1nc(C)c(C(=O)NCCN2CCCCC2)s1 | Pks13 thioesterase: -17.24%; PfKRS1: 2.238%; LiHisRS: 11.97%; MtTrpRS: -3.918%
* CC[C@@H](Cn1ncc2ccccc2c1=O)NC(=O)c1ccco1 | Pks13 thioesterase: 1.189%; PfKRS1: -0.186%; LiHisRS: 5.674%; MtTrpRS: -3.039%
* COc1ccc(C[C@H]2CN(Cc3ccoc3)CC[C@@H]2OC)cc1 | Pks13 thioesterase: 3.515%; PfKRS1: 4.772%; LiHisRS: 11.54%
* CCN1CCOCC2(CCCN(C(=O)c3cccc(O)c3)C2)C1 (stereo unspecified) | Pks13 thioesterase: -6.89%; PfKRS1: 4.291%; LiHisRS: 11.93%; MtTrpRS: -3.317%
* CN(C)CCN1C[C@@H]2OCCN(Cc3cnn(C)c3)[C@@H]2C1 | PfKRS1: 6.543%; LiHisRS: 11.84%; MtTrpRS: -0.5947%
* CCNC(=O)CN1CCSC2(CCCCC2)C1 | Pks13 thioesterase: -8.465%; PfKRS1: 2.196%; LiHisRS: 9.6%; MtTrpRS: 0.1505%
* CC(C)Oc1cccc(CNC(=O)NC2(CO)CCCC2)c1 | Pks13 thioesterase: -15.31%; PfKRS1: 1.997%; LiHisRS: 7.692%; MtTrpRS: -3.488%